These are yes or no findings as the source states them, for the method shown. In cells and extracts the contact can be indirect. Some entries that bind do so weakly or less than the wild type. For some assays here: Where a sequence is shown, tags or fusion partners need not be part of it.
Tests used:
[1] = molecular target: sirtuin-1 (SIRT1), endogenous (human (endogenous in RBE)) (UniProt Q96EB6); assay: co-IP; endogenous proteins; lysates of RBE-shControl and RBE-shUSP22 cells; antibody to USP22 or SIRT1 (IgG as control) immobilised on AminoLink Plus resin (Pierce co-IP kit), incubated with lysate overnight; immunoblot
[2] = molecular target: tagged SIRT1 expressed in 293T cells (UniProt Q96EB6); assay: co-IP; 293T cells transfected with tagged USP22 and tagged SIRT1 alone or together, lysed after 48 h; immunoprecipitation and immunoblot with antibodies to Flag and Myc (IgG as control)

Protein sequences, listed by entry. Tags and fused reporters are not part of them.
UniProt Q96EB6: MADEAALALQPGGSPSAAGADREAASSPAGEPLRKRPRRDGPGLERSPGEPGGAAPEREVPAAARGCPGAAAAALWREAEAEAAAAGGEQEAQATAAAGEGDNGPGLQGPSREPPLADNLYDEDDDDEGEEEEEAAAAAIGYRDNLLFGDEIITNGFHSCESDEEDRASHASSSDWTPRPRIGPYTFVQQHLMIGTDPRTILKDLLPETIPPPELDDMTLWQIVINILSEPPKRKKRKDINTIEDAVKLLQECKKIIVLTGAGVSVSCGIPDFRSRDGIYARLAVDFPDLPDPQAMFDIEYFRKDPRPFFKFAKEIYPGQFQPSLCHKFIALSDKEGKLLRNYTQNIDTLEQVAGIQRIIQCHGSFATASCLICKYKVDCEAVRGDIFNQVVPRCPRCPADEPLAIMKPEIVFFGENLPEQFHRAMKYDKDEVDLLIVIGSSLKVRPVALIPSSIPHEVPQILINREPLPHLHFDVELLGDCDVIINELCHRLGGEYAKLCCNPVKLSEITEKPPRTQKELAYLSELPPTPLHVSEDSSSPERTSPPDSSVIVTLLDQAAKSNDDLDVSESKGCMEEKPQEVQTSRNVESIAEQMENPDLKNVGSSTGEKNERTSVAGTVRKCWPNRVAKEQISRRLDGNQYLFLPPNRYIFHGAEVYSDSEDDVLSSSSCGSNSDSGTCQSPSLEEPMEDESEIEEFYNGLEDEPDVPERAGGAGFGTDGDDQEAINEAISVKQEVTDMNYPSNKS

binding [1]	binding [2]	Binder
binds		ubiquitin-specific protease 22 (USP22), endogenous (protein, UniProt Q9UPT9 1-525) MVSRPEPEGEAMDAELAVAPPGCSHLGSFKVDNWKQNLRAIYQCFVWSGTAEARKRKAKSCICHVCGVHLNRLHSCLYCVFFGCFTKKHIHEHAKAKRHNLAIDLMYGGIYCFLCQDYIYDKDMEIIAKEEQRKAWKMQGVGEKFSTWEPTKRELELLKHNPKRRKITSNCTIGLRGLINLGNTCFMNCIVQALTHTPLLRDFFLSDRHRCEMQSPSSCLVCEMSSLFQEFYSGHRSPHIPYKLLHLVWTHARHLAGYEQQDAHEFLIAALDVLHRHCKGDDNGKKANNPNHCNCIIDQIFTGGLQSDVTCQVCHGVSTTIDPFWDISLDLPGSSTPFWPLSPGSEGNVVNGESHVSGTTTLTDCLRRFTRPEHLGSSAKIKCSGCHSYQESTKQLTMKKLPIVACFHLKRFEHSAKLRRKITTYVSFPLELDMTPFMASSKESRMNGQYQQPTDSLNNDNKYSLFAVVNHQGTLESGHYTSFIRQHKDQWFKCDDAIITKASIKDVLDSEGYLLFYHKQFLEYE
	binds	tagged USP22 expressed in 293T cells (protein, UniProt Q9UPT9 1-525) MVSRPEPEGEAMDAELAVAPPGCSHLGSFKVDNWKQNLRAIYQCFVWSGTAEARKRKAKSCICHVCGVHLNRLHSCLYCVFFGCFTKKHIHEHAKAKRHNLAIDLMYGGIYCFLCQDYIYDKDMEIIAKEEQRKAWKMQGVGEKFSTWEPTKRELELLKHNPKRRKITSNCTIGLRGLINLGNTCFMNCIVQALTHTPLLRDFFLSDRHRCEMQSPSSCLVCEMSSLFQEFYSGHRSPHIPYKLLHLVWTHARHLAGYEQQDAHEFLIAALDVLHRHCKGDDNGKKANNPNHCNCIIDQIFTGGLQSDVTCQVCHGVSTTIDPFWDISLDLPGSSTPFWPLSPGSEGNVVNGESHVSGTTTLTDCLRRFTRPEHLGSSAKIKCSGCHSYQESTKQLTMKKLPIVACFHLKRFEHSAKLRRKITTYVSFPLELDMTPFMASSKESRMNGQYQQPTDSLNNDNKYSLFAVVNHQGTLESGHYTSFIRQHKDQWFKCDDAIITKASIKDVLDSEGYLLFYHKQFLEYE

From article PMC8257691
